Record: PubChem BioAssay AID1224830 (NIAID, 2016)
Here is a random part of about 18,000 reagents tested. In the full data, about 2,900 (16%) got an active call. 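Calls are made per well; low scores hint the gene aids the LPS response, high scores that it dampens it.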 Unmarked entries are inactive. Repeated entries: four replicate wells of each siRNA pool. Reagent sequences are not shown.

Test: 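Host factors that control LPS-induced TNF expression in human macrophages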 (primary screen)
System: human THP-1 monocytic leukaemia cells, TNF dual-luciferase reporter clone, PMA-differentiated to macrophage-like cells
Reagents: siRNA pool against human genes, 50 nM
Duration: LPS for 4 h, given about 3 days after siRNA transfection
Conditions: bacterial LPS (TLR4 ligand), 10 ng/ml
Measured: 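Ratio of firefly to renilla light, scaled to the plate median and expressed as a robust z-score per replicate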
Scale: TNF reporter robust z-score: higher = stronger TNF reporter response to LPS
Rule for the call: 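Each well counts as active if its z-score is over 2.8 or under -1.5; controls are left without a call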

no.	gene	TNF reporter robust z-score
1	SLC31A2	0.05
2	SLC31A2	2.2
3	SLC31A2	0.76
4	SLC31A2	0.16
5	CBLN4	-1.38
6	CBLN4	-1.37
7	CBLN4	-1.04
8	EHBP1	-0.19
9	EHBP1	0.17
10	EHBP1	0.25
11	EHBP1	0.31
12	PLEKHM3	0.37
13	PLEKHM3	0.71
14	PLEKHM3	0.19
15	PLEKHM3	0.97
16	LCE2C	-0.43
17	LCE2C	-0.44
18	LCE2C	-1.01
19	LCE2C	-1.15
20	MPC2	-1.5
21	MPC2	1.25
22	MPC2	0.29
23	MPC2	-1.11
24	ATP1A4	1.41
25	ATP1A4	0.19
26	ATP1A4	1.33
27	ATP1A4	2.15
28	SKAP2	-0.19
29	SKAP2	-0.03
30	SKAP2	0.41
31	SKAP2	-0.41
32	MTRF1	-0.76
33	MTRF1	-0.58
34	MTRF1	-0.5
35	MTRF1	-0.73
36	NDUFB3	-1.68 (active)
37	NDUFB3	-1.35
38	NDUFB3	-1.56 (active)
39	NDUFB3	-1.23
40	SHLD1	-0.13
41	SHLD1	-1.05
42	SHLD1	0.29
43	SHLD1	-0.39
44	CCL20	0.79
45	CCL20	1.6
46	CCL20	0.83
47	CCL20	2.06
48	ZNF521	-0.74
49	ZNF521	1.23
50	ZNF521	1.17
51	ZNF521	2.09
52	DHX29	-1.12
53	DHX29	0.27
54	DHX29	0.06
55	DHX29	0.43
56	SEPTIN14	0.73
57	SEPTIN14	-0.05
58	SEPTIN14	-0.32
59	SEPTIN14	1.2
60	MEP1B	0.4
61	MEP1B	0.88
62	MEP1B	-0.83
63	MEP1B	0.48
64	CYP19A1	-1.46
65	CYP19A1	-0.48
66	CYP19A1	-0.13
67	CYP19A1	-1.22
68	NUCKS1	-0.09
69	NUCKS1	-0.05
70	NUCKS1	1.55
71	CDV3	2.49
72	CDV3	1.64
73	CDV3	1.16
74	CDV3	2.02

Continued (18 carried over from the part before).
no.	gene	TNF reporter robust z-score
57	SEPTIN14	-0.05
58	SEPTIN14	-0.32
59	SEPTIN14	1.2
60	MEP1B	0.4
61	MEP1B	0.88
62	MEP1B	-0.83
63	MEP1B	0.48
64	CYP19A1	-1.46
65	CYP19A1	-0.48
66	CYP19A1	-0.13
67	CYP19A1	-1.22
68	NUCKS1	-0.09
69	NUCKS1	-0.05
70	NUCKS1	1.55
71	CDV3	2.49
72	CDV3	1.64
73	CDV3	1.16
74	CDV3	2.02
75	BCAT1	0.72
76	BCAT1	0.11
77	BCAT1	1.04
78	BCAT1	1.69
79	POLR1B	-0.22
80	POLR1B	-0.12
81	POLR1B	-0.06
82	POLR1B	-0.34
83	RTKN	0.26
84	RTKN	-1
85	RTKN	-0.6
86	RTKN	-0.27
87	ZC3H3	-0.03
88	ZC3H3	0.71
89	ZC3H3	0.19
90	ZC3H3	0.09
91	GAS7	0.01
92	GAS7	0.22
93	GAS7	0.64
94	GAS7	0.06
95	FAM186B	0.05
96	FAM186B	-0.19
97	FAM186B	-0.38
98	FAM186B	-0.17
99	ST6GALNAC2	-0.77
100	ST6GALNAC2	-0.85
101	ST6GALNAC2	-0.43
102	ST6GALNAC2	-0.25
103	TEX26	-0.96
104	TEX26	-0.3
105	TEX26	-0.63
106	TEX26	0.71
107	LRRN4CL	-1
108	LRRN4CL	-1.1
109	LRRN4CL	-0.96
110	LRRN4CL	-1.06
111	ZNF391	-0.6
112	ZNF391	-0.16
113	ZNF391	-1.08
114	ZNF391	-0.03
115	SERP1	0.11
116	SERP1	1.49
117	SERP1	-1.39
118	SERP1	-0.36
119	CARD8	-0.3
120	CARD8	0.36
121	CARD8	-0.73
122	CARD8	0.06
123	HOXC4	1.1
124	HOXC4	1.3
125	HOXC4	-0.41
126	HOXC4	1.33
127	CEL	1.47
128	CEL	0.53
129	CEL	0.44
130	CEL	0.22
131	NEU3	2.26
132	NEU3	4.88 (active)
133	NEU3	4.4 (active)
134	NEU3	5.41 (active)
135	CD209	2.93 (active)
136	CD209	4.18 (active)
137	CD209	3.06 (active)
138	CD209	3.56 (active)
139	MMP1	-0.27
140	MMP1	0.35
141	MMP1	-1.17
142	MMP1	-0.64
